# Experimental data taken from PubChem BioAssay AID248 (DTP/NCI, 2004).
# The list shows only some results of the screen, not a fair sample: its compounds were picked by chemical class. Other doses and runs of a compound may be missing. T/C gives the treated animals as a percentage of the vehicle group. Some entries give survivors of the animals treated and no T/C: the source files T/C as zero there, which appears to mark a toxic dose or a test without result, not a measured value. Some survivor counts are full or nearly so, which does not show that the dose was tolerated: survival well below the control is almost never listed, so the zero probably covers shortened survival too. Counts of survivors are from the toxicity check (mostly the fifth day) where no day follows; animals may have died later. Schedules are NCI's codes, read here as Q, the interval in days (D) or hours (H), X, the number of doses. Some schedules carry Z or #; the key to these is not given. Where survival is the endpoint, this PubChem deposit counts one and a half times the control or more as active, and values a quarter to a half above the control carry no call in these data; other NCI protocols may use other cut-offs. Some doses were run more than once; the results are listed from low to high. Some T/C values carry the count of animals alive at the toxicity check (mostly the fifth day); without a count or a note in brackets, all were alive then.
# System: L1210 leukemia ip in BDF1 mice, survival T/C
# Assay: NCI In Vivo Anticancer Drug Screen. Data for tumor model L1210 Leukemia (intraperitoneal) in B6D2F1 (BDF1) mice
# Conditions: higher T/C = longer survival
# [1] = T/C endpoint: mean survival time, dose: 25.0 mg/kg/injection, schedule: Q01DX009 (ip), vehicle: saline with Tween-80
# [2] = T/C endpoint: mean survival time, dose: 50.0 mg/kg/injection, schedule: Q01DX009 (ip), vehicle: saline with Tween-80
# [3] = T/C endpoint: mean survival time, dose: 100.0 mg/kg/injection, schedule: Q01DX009 (ip), vehicle: saline with Tween-80
# [4] = T/C endpoint: mean survival time, dose: 100.0 mg/kg/injection, schedule: Q04DX003 (ip), vehicle: saline with Tween-80
# [5] = T/C endpoint: mean survival time, dose: 200.0 mg/kg/injection, schedule: Q04DX003 (ip), vehicle: saline with Tween-80
# [6] = T/C endpoint: mean survival time, dose: 400.0 mg/kg/injection, schedule: Q04DX003 (ip), vehicle: saline with Tween-80
# [7] = T/C endpoint: mean survival time, dose: 50.0 mg/kg/injection, schedule: Q04DX003 (ip), vehicle: saline with Tween-80
# [8] = T/C endpoint: mean survival time, dose: 125.0 mg/kg/injection, schedule: Q01DX001 (ip), vehicle: DMSO
# [9] = T/C endpoint: mean survival time, dose: 250.0 mg/kg/injection, schedule: Q01DX001 (ip), vehicle: DMSO
# [10] = T/C endpoint: mean survival time, dose: 500.0 mg/kg/injection, schedule: Q01DX001 (ip), vehicle: DMSO
# [11] = T/C endpoint: mean survival time, dose: 100.0 mg/kg/injection, schedule: Q01DX001 (ip), vehicle: Klucel (hydroxypropylcellulose) (HPC)
structure (smiles),measurement,setting,value
Cc1ccc(P(=O)(Cl)Cl)cc1,T/C,[1],88 % of control
same,T/C,[2],95 % of control
same,survivor count,[3],3 of 6
same,T/C,[4],86 % of control [5 of 6 alive]
same,survivor count,[5],4 of 6
same,survivor count,[6],0 of 6
CN1CN(CCCl)c2ccccc21,T/C,"T/C endpoint: mean survival time, dose: 3.0 mg/kg/injection, schedule: Q01DX Z (ip), vehicle: saline",90 % of control
same,T/C,"T/C endpoint: mean survival time, dose: 10.0 mg/kg/injection, schedule: Q01DX Z (ip), vehicle: saline",95 % of control
same,T/C,"T/C endpoint: mean survival time, dose: 30.0 mg/kg/injection, schedule: Q01DX Z (ip), vehicle: saline",93 % of control
same,survivor count,"T/C endpoint: mean survival time, dose: 100.0 mg/kg/injection, schedule: Q01DX Z (ip), vehicle: saline",3 of 6
Clc1ccc(P(Cl)Cl)cc1,T/C,[1],98 % of control
same,T/C,"T/C endpoint: mean survival time, dose: 25.0 mg/kg/injection, schedule: Q04DX003 (ip), vehicle: saline with Tween-80",96 % of control
same,T/C,[2],96 % of control
same,T/C,[7],98 % of control
same,T/C,[3],93 % of control
same,T/C,"T/C endpoint: mean survival time, dose: 100.0 mg/kg/injection, schedule: Q04DX003 (ip), vehicle: saline with Tween-80, evaluated on day 20",93 % of control
same,T/C,"T/C endpoint: mean survival time, dose: 100.0 mg/kg/injection, schedule: Q04DX003 (ip), vehicle: saline with Tween-80, evaluated on day 30",107 % of control
same,survivor count,[5],4 of 6
same,survivor count,[6],1 of 6
O=P(Cl)(CCl)NC12CC3CC(CC(C3)C1)C2 (stereo not drawn),T/C,"T/C endpoint: mean survival time, dose: 50.0 mg/kg/injection, schedule: Q01DX009 (ip), vehicle: Klucel (hydroxypropylcellulose) (HPC)",93 % of control [5 of 6 alive]
same,survivor count,"T/C endpoint: mean survival time, dose: 100.0 mg/kg/injection, schedule: Q01DX009 (ip), vehicle: Klucel (hydroxypropylcellulose) (HPC)",0 of 6
same,T/C,"T/C endpoint: mean survival time, dose: 100.0 mg/kg/injection, schedule: Q04DX003 (ip), vehicle: Klucel (hydroxypropylcellulose) (HPC)",100 % of control
same,survivor count,"T/C endpoint: mean survival time, dose: 200.0 mg/kg/injection, schedule: Q01DX009 (ip), vehicle: Klucel (hydroxypropylcellulose) (HPC)",1 of 6
same,T/C,"T/C endpoint: mean survival time, dose: 200.0 mg/kg/injection, schedule: Q04DX003 (ip), vehicle: Klucel (hydroxypropylcellulose) (HPC)",93 % of control
same,survivor count,"T/C endpoint: mean survival time, dose: 400.0 mg/kg/injection, schedule: Q04DX003 (ip), vehicle: Klucel (hydroxypropylcellulose) (HPC)",2 of 6
O=C(c1ccc([N+](=O)[O-])cc1)N(CCCl)CCCl,T/C,"T/C endpoint: median survival time, dose: 100.0 mg/kg/injection, schedule: Q01DX009 (ip), vehicle: Klucel (hydroxypropylcellulose) (HPC)",111 % of control
same,T/C,"T/C endpoint: median survival time, dose: 200.0 mg/kg/injection, schedule: Q01DX009 (ip), vehicle: Klucel (hydroxypropylcellulose) (HPC)",109 % of control
same,survivor count,"T/C endpoint: median survival time, dose: 400.0 mg/kg/injection, schedule: Q01DX009 (ip), vehicle: Klucel (hydroxypropylcellulose) (HPC)",4 of 6
CC(C)(C)C1COP(=O)(N(CCCl)CCCl)OC1 (stereo not drawn),T/C,"T/C endpoint: mean survival time, dose: 62.5 mg/kg/injection, schedule: Q01DX001 (ip), vehicle: DMSO",109 % of control
same,T/C,[8],109 % of control [5 of 6 alive]
same,survivor count,[9],0 of 6
same,survivor count,[10],0 of 6
CCOP(=O)(Nc1nc2ccccc2[nH]1)OCC,T/C,"T/C endpoint: mean survival time, dose: 50.0 mg/kg/injection, schedule: Q01DX009 (ip), vehicle: saline",94 % of control
same,T/C,"T/C endpoint: mean survival time, dose: 100.0 mg/kg/injection, schedule: Q01DX009 (ip), vehicle: saline",105 % of control
same,T/C,"T/C endpoint: mean survival time, dose: 200.0 mg/kg/injection, schedule: Q01DX009 (ip), vehicle: saline",102 % of control
C(=C/[AsH](c1ccccc1)c1ccccc1)/[AsH](c1ccccc1)c1ccccc1.C(=C/[AsH](c1ccccc1)c1ccccc1)/[AsH](c1ccccc1)c1ccccc1.[Rh+2].[S-][S-],T/C,"T/C endpoint: mean survival time, dose: 25.0 mg/kg/injection, schedule: Q01DX001 (ip), vehicle: Klucel (hydroxypropylcellulose) (HPC)",106 % of control
same,T/C,"T/C endpoint: mean survival time, dose: 50.0 mg/kg/injection, schedule: Q01DX001 (ip), vehicle: Klucel (hydroxypropylcellulose) (HPC)",97 % of control
same,T/C,[11],105 % of control
[C-]#N.[C-]#N.[C-]#N.[C-]#N.[Fe+6].[N-]=CC1CCCC[N-]1 (stereo not drawn),T/C,"T/C endpoint: mean survival time, dose: 75.0 mg/kg/injection, schedule: Q04DX002 (ip), vehicle: saline",89 % of control
same,T/C,"T/C endpoint: mean survival time, dose: 150.0 mg/kg/injection, schedule: Q04DX002 (ip), vehicle: saline",92 % of control
same,T/C,"T/C endpoint: mean survival time, dose: 300.0 mg/kg/injection, schedule: Q04DX002 (ip), vehicle: saline",95 % of control
CN(/N=C\c1ccc(N(CCBr)CCBr)cc1)C(=N)N,T/C,"T/C endpoint: mean survival time, dose: 0.7 mg/kg/injection, schedule: Q01DX015 (ip), vehicle: carboxymethylcellulose (CMC)",98 % of control
same,T/C,"T/C endpoint: mean survival time, dose: 1.25 mg/kg/injection, schedule: Q01DX015 (ip), vehicle: carboxymethylcellulose (CMC)",112 % of control
same,T/C,"T/C endpoint: mean survival time, dose: 2.5 mg/kg/injection, schedule: Q01DX015 (ip), vehicle: carboxymethylcellulose (CMC)",105 % of control
same,T/C,"T/C endpoint: mean survival time, dose: 5.0 mg/kg/injection, schedule: Q01DX015 (ip), vehicle: carboxymethylcellulose (CMC)",107 % of control
same,T/C,"T/C endpoint: mean survival time, dose: 10.0 mg/kg/injection, schedule: Q01DX015 (ip), vehicle: carboxymethylcellulose (CMC)",115 % of control
same,T/C,"T/C endpoint: mean survival time, dose: 100.0 mg/kg/injection, schedule: Q01DX001 (ip), vehicle: carboxymethylcellulose (CMC)",106 % of control
same,T/C,"T/C endpoint: mean survival time, dose: 200.0 mg/kg/injection, schedule: Q01DX001 (ip), vehicle: carboxymethylcellulose (CMC)",100 % of control
same,T/C,"T/C endpoint: mean survival time, dose: 400.0 mg/kg/injection, schedule: Q01DX001 (ip), vehicle: carboxymethylcellulose (CMC)",114 % of control
BrCCN1CCNCC1,T/C,"T/C endpoint: mean survival time, dose: 100.0 mg/kg/injection, schedule: Q01DX001 (ip), vehicle: saline",107 % of control
same,T/C,"T/C endpoint: mean survival time, dose: 200.0 mg/kg/injection, schedule: Q01DX001 (ip), vehicle: saline",96 % of control [3 of 4 alive]
same,survivor count,"T/C endpoint: mean survival time, dose: 400.0 mg/kg/injection, schedule: Q01DX001 (ip), vehicle: saline",0 of 4
CC1=C2C(=CC(C)(C)C2O)C(O)C(C)(O)C12CC2 (stereo not drawn),T/C,"T/C endpoint: mean survival time, dose: 50.0 mg/kg/injection, schedule: Q01DX009 (ip), vehicle: other",103 % of control
same,T/C,[7],105 % of control
same,T/C,"T/C endpoint: mean survival time, dose: 100.0 mg/kg/injection, schedule: Q01DX009 (ip), vehicle: other",103 % of control
same,T/C,[4],102 % of control
same,T/C,"T/C endpoint: mean survival time, dose: 200.0 mg/kg/injection, schedule: Q01DX009 (ip), vehicle: other",132 % of control
same,T/C,[5],105 % of control
same,survivor count,"T/C endpoint: mean survival time, dose: 400.0 mg/kg/injection, schedule: Q01DX009 (ip), vehicle: other",6 of 6
same,T/C,[6],104 % of control
O=C(CSc1ccc([N+](=O)[O-])cc1[N+](=O)[O-])c1ccc([N+](=O)[O-])cc1,T/C,[11],90 % of control
same,T/C,"T/C endpoint: mean survival time, dose: 200.0 mg/kg/injection, schedule: Q01DX001 (ip), vehicle: Klucel (hydroxypropylcellulose) (HPC)",89 % of control
same,T/C,"T/C endpoint: mean survival time, dose: 400.0 mg/kg/injection, schedule: Q01DX001 (ip), vehicle: Klucel (hydroxypropylcellulose) (HPC)",90 % of control
Cc1ccc([N+](=O)[O-])cc1NC(=O)NNc1ccc([N+](=O)[O-])cc1[N+](=O)[O-],T/C,[1],93 % of control
same,T/C,[2],100 % of control
same,T/C,[3],98 % of control
ClCCN(CCCl)B1SCCCS1,T/C,"T/C endpoint: mean survival time, dose: 1.6 mg/kg/injection, schedule: Q01DX001 (ip), vehicle: saline",104 % of control
same,T/C,"T/C endpoint: mean survival time, dose: 3.12 mg/kg/injection, schedule: Q01DX001 (ip), vehicle: saline",103 % of control
same,T/C,"T/C endpoint: mean survival time, dose: 6.25 mg/kg/injection, schedule: Q01DX001 (ip), vehicle: saline",101 and 127 % of control
same,T/C,"T/C endpoint: mean survival time, dose: 12.5 mg/kg/injection, schedule: Q01DX001 (ip), vehicle: saline",114 % of control
same,T/C,"T/C endpoint: mean survival time, dose: 25.0 mg/kg/injection, schedule: Q01DX001 (ip), vehicle: saline",125 % of control
same,T/C,"T/C endpoint: mean survival time, dose: 50.0 mg/kg/injection, schedule: Q01DX001 (ip), vehicle: saline",102 % of control
CCNP(=O)(OCCC=O)N(CCCl)CCCl (stereo not drawn),T/C,[8],117 % of control
same,T/C,[9],117 % of control
same,T/C,[10],136 % of control [5 of 6 alive]
same,survivor count,"T/C endpoint: mean survival time, dose: 750.0 mg/kg/injection, schedule: Q01DX001 (ip), vehicle: DMSO",1 of 6
same,survivor count,"T/C endpoint: mean survival time, dose: 1000.0 mg/kg/injection, schedule: Q01DX001 (ip), vehicle: DMSO",0 of 6
same,survivor count,"T/C endpoint: mean survival time, dose: 1250.0 mg/kg/injection, schedule: Q01DX001 (ip), vehicle: DMSO",0 of 6
